Test results from PubChem BioAssay AID588497 (NMMLSC, 2011).
The whole screen tested about 360,000 compounds, of which about 780 (0.22%) were called active. Inconclusive results, whose numbers are uncertain, are shown with a selection of clear calls. Rule as the data show it: active = inhibition above about 35% (passing the limit was not always enough); inconclusive = no clear call, values can overlap the other calls.

Each compound was assayed on Botulinum neurotoxin type F light chain protease (Clostridium botulinum) (assay: BoNT/F light chain protease inhibitors, primary screen, biochemical, flow cytometry, MLPCN library (AID 588497; also: plate controls were buffer without enzyme for full effect and enzyme alone for no effect)). Settings: Multiplex microsphere protease cleavage assay, at 10 µM, hits give high values.

Compound	inhibition
COc1cc(C2NC(=O)c3ccccc3O2)ccc1OC(C)C (stereo not given)	inconclusive: 16.9%
O=C(COc1ccc(Cl)cc1Br)Nc1ccncc1	inconclusive: -9.1%
Cc1occc1C(=O)Nc1c(F)c(F)c(F)c(F)c1F	inconclusive: -8.5%
CCOC(=O)C1(CCOc2ccccc2)CCN(Cc2cccc(OC)c2O)CC1	inconclusive: 38.8%
COCCN(C(=O)CSc1nnc(-c2ccccc2OC)o1)c1c(N)n(CC(C)C)c(=O)[nH]c1=O	inconclusive: -7.6%
CC(C)(C)c1ccc(SCCc2ccncc2)cc1	inconclusive: 0.3%
COc1ccc(OC)c(NP2(=O)OCC(C)([N+](=O)[O-])CO2)c1 (stereo not given)	inactive: 3.9%
CCCC(=O)N/C(N)=N/c1nc2ccccc2o1	inconclusive: 28.7%
Cc1ccccc1N1CCN(C(=S)c2ccc(-c3ccc([N+](=O)[O-])cc3)o2)CC1	inconclusive: -470%
COc1ccc(S(=O)(=O)N2CCN(c3ccccn3)CC2)c(OC)c1	inconclusive: -24.4%
O=S(=O)(NCc1ccc2c(c1)OCO2)c1ccc2oc3ccccc3c2c1	inactive: 1.5%
COc1cc(CN2CCCCCC2)c([N+](=O)[O-])cc1OC	inconclusive: -28.6%
Cc1ccc(N(C)C2=NC(=O)CS2)cc1Cl	inconclusive: 8.2%
COc1ccc(NC(=O)CN2CCN(c3ccc(C)cc3C)CC2)cc1	inconclusive: -1.5%
Cc1ccc(N2C(=O)CN=C2Nc2nc(C)cc(C)n2)cc1	inconclusive: 48.1%
CC(C)CCN(CCC(C)C)CC(O)Cn1c2ccccc2c(=O)c2ccccc21 (stereo not given)	inconclusive: 62.9%
Cc1ccc(NC(=O)CN(C)C(=O)c2cc(S(=O)(=O)N(C)C)ccc2N2CCCC2)cc1	inconclusive: 8%
O=C(CC12CC3CC(CC(C3)C1)C2)N1CCOCC1	inconclusive: -27.3%
CN(C)c1ncnc(N(C)C)c1[N+](=O)[O-]	inconclusive: 32%
Cc1ccc(SCCNC(=O)CN(c2ccc3c(c2)OCO3)S(C)(=O)=O)cc1	inactive: -1.8%
Cc1ccc(C(=O)COc2cc(C)nc3nncn23)cc1	inconclusive: 40.7%
O=C(N/N=C/C(Br)=C/c1ccccc1)c1ccncc1	inconclusive: -37.7%
Cc1ccc(OCCCN2CCOCC2)cc1	inconclusive: 3.5%
CC1CCc2cccc3c2N1c1cc(C#N)c(C#N)cc1O3 (stereo not given)	inactive: -0.1%

Arranged by SMILES length (rising): three of the compounds above
Compound	inhibition
CN(C)c1ncnc(N(C)C)c1[N+](=O)[O-]	inconclusive: 32%
COc1cc(CN2CCCCCC2)c([N+](=O)[O-])cc1OC	inconclusive: -28.6%
Cc1ccc(SCCNC(=O)CN(c2ccc3c(c2)OCO3)S(C)(=O)=O)cc1	inactive: -1.8%

Going on with the list.

Compound	inhibition
O=C(O)c1ccc(CSc2nnc(-c3ccccc3Br)o2)cc1	inconclusive: -60.3%
Cc1ccccc1C(=O)O/N=C(\N)c1ccc([N+](=O)[O-])cc1	inconclusive: 21.1%
COCC(C)Nc1ncnc2c1cnn2-c1ccc(Cl)cc1 (stereo not given)	inconclusive: -5.8%
CC(C)OC(=O)CC(=O)CSc1nc2c(cc1C#N)CCC2	inconclusive: -23.2%
CSc1ccc(/C=C/C(=O)c2c(O)cc(C)oc2=O)cc1	active: 45.1%
C=CCn1c(-c2cccc(OC)c2)nc2nc3ccccc3nc21	inconclusive: 11.7%
COC(=O)c1ccc(N/C=C/C(=O)c2ccccc2)cc1	inconclusive: 18.2%
Cc1ccc(N(C(=O)c2csnn2)C(C(=O)NC2CCCCC2)c2cccnc2)cc1 (stereo not given)	inactive: 8.8%
Cc1cc(C)c(S(=O)(=O)Nc2nccs2)c(C)c1	inconclusive: -5.7%
C[C@H](CO)N1C[C@H](C)[C@H](CN(C)C(=O)C2CC2)OCc2cnnn2CCCC1=O	inactive: -2.7%
COc1cc(-c2nc3cnccc3n2C)cc(OC)c1OC	inconclusive: -39.2%
COc1cccc(NC(=O)C(=O)NCCc2ccc(F)cc2)c1	inconclusive: -12.5%
CCOC(=O)CCCCC(=O)c1[nH]c(=O)[nH]c1CSc1nc(C)cc(=O)[nH]1	active: 47.3%
N#CCSc1n[nH]c2nc3c(c(=O)n12)C1(CCCC1)Cc1ccccc1-3	inactive: 1.3%
CCOC(=O)C(NC=O)(NC(C)(C)C)C(=O)OCC	inconclusive: -14.8%
CCCN(CC1CCCO1)C(=O)CCc1nnc(CCc2ccc(OC)cc2)o1 (stereo not given)	inactive: 5%
CCc1c(C)nc2cc(-c3ccccc3)[nH]n2c1=O	active: 36.2%
CCN1C(=O)CC(N2CCC(Cc3ccccc3)CC2)C1=O (stereo not given)	inconclusive: 3.9%
Cc1ccc(C(=O)O)cc1NCc1ccncc1	inconclusive: 33.6%
S=C(Nc1ccc(Oc2ccccc2)cc1)N1CCOCC1	inconclusive: 20.5%
COc1ccc(CCNC(=O)C(=O)Nc2nccs2)cc1OC	inconclusive: 7.3%
Fc1ccc(-c2nc3ccc(Cl)cn3c2Cc2cccc(F)c2)cc1	inactive: 1.1%
CCC(C)(C)c1ccc(Oc2cccc(C(=O)O)c2)cc1	inconclusive: 3.5%
COc1ccc(C(=O)NN=C2CCCC2)cc1	inconclusive: -6.5%

No new results follow: entries from further up.
Compound	inhibition
CCOC(=O)C1(CCOc2ccccc2)CCN(Cc2cccc(OC)c2O)CC1	inconclusive: 38.8%
COCCN(C(=O)CSc1nnc(-c2ccccc2OC)o1)c1c(N)n(CC(C)C)c(=O)[nH]c1=O	inconclusive: -7.6%
CC(C)(C)c1ccc(SCCc2ccncc2)cc1	inconclusive: 0.3%

(list continues)

Compound	inhibition
CC(C)(C)c1csc(SCC(=O)Nc2ccc(Cl)cn2)n1	inactive: 1.2%
Cc1cccc2cc(COC(=O)c3ccco3)c(=O)[nH]c12	inconclusive: -9.8%
O=c1c2ccccc2oc2cc(OCc3cccc(F)c3)cc(O)c12	inactive: 15%
Cc1ccccc1C(=O)N1CCN(C(c2ccccc2)c2ccccc2)CC1	inconclusive: -3.3%
CCOc1ccc(/C=C/C(=O)N2CCOCC2)cc1OC	inconclusive: -32.2%
O=c1c2ccccc2nc(-c2ccco2)n1-c1nccs1	inconclusive: -30.2%
COc1ccc(CN2CCN(CC(=O)Nc3ccccc3C(=O)NC3CC3)CC2)cc1F	inconclusive: -101%
Clc1ccc(NN(Cc2ccncc2)c2ccc(Cl)cc2)cc1	inactive: -6.1%
CCC(C)n1c(-c2cccc(S(=O)(=O)N3CCOCC3)c2)n[nH]c1=S (stereo not given)	inactive: 0.5%
COc1ccc(CCCc2nnc(SCC(=O)NN)o2)c(C)c1	inactive: -15%
Cc1nnsc1C(=O)N1CCN(c2cc(C(F)(F)F)ccn2)CC1	inconclusive: -29.5%
CCN1CCN(C(c2ccccc2)c2nnnn2Cc2ccc3c(c2)OCO3)CC1 (stereo not given)	inactive: 0.3%
CCc1ccccc1Nc1nc(-c2cccnc2)cs1	inconclusive: -44.4%
Cc1cc(C)c2ccc(=O)n(CC(=O)N/N=C/c3ccccc3Cl)c2n1	inconclusive: 78.6%
CCC(=O)Nc1nnc(S(=O)(=O)N(C)c2cc(C)cc(C)c2)s1	active: 41.7%
COc1ccccc1N1CCN(/N=C/c2cc(Br)ccc2F)CC1	inconclusive: 7.8%
O=C(C[C@H]1C(=O)N(c2ccc(Br)cc2)C[C@@H]1Cc1ccccc1)Nc1ccccc1	inactive: -3.3%
CCc1ccc(OCc2nnc(SCC(=O)Nc3cccc(C(=O)N4CCOCC4)c3)o2)cc1	active: 46%
Cc1ccc(Sc2cc(C)nc(-c3ccccn3)n2)cc1	inconclusive: 16.2%
Cc1ccc(S(=O)(=O)N2CCN(C(=O)c3sccc3C)CC2)cc1	inconclusive: 19.6%
Cc1ccc(C(=O)COC(=O)C2C3C=CC(C3)C2C(=O)OCC(=O)c2ccc(C)c(C)c2)cc1C (stereo not given)	inactive: -4.1%
COc1ccccc1-c1nnc(SC(C(=O)c2c[nH]c3ccccc23)c2ccccc2)n1C (stereo not given)	inactive: -3.9%
Cc1ccc(Nc2nc(N)c3ccccc3n2)cc1C	inconclusive: -10.9%
CCOC(=O)C1=C(COC(=O)COc2ccc(OCC)cc2)NC(=O)NC1C (stereo not given)	inconclusive: -8.2%

Compound	inhibition
Cc1ccc(C(C(=O)NC2CCCCC2)N2CCCC2)cc1 (stereo not given)	active: 35.5%
CCCN1CCC(NC(=O)Cc2ccccc2C)CC1	inconclusive: 30.7%
Clc1nc(-c2ccccc2)ncc1Oc1ccccc1	inconclusive: 22%
COc1ccc(N(C(=O)c2snc(C(N)=O)c2N)C(C(=O)NCC2CCCO2)c2ccc3ncccc3c2)cc1OC (stereo not given)	active: 38.4%
CCOC(=O)c1cnn(CCOC(=O)C(C)(C)C)c1NC(=O)C(C)(C)C	active: 42.8%
CC(C)COc1ccc(Cc2c(O)[nH]c(=S)[nH]c2=O)cc1	inconclusive: 3.8%
COc1cccc(OC)c1C(=O)NC(=S)NNC(=O)[C@H]1C[C@@H]1c1ccccc1	inconclusive: -23.5%
CC(C)(C)c1ccc(NC(=O)N2CCCN(c3ccc([N+](=O)[O-])cn3)CC2)cc1	inconclusive: -41.7%
CC(C)N1CCN(CCCc2ccccc2)CC1CCO (stereo not given)	inconclusive: 52.8%
Cc1ccc(OCCCCN2CCCCC2)c(C)c1	inconclusive: -19%
O=C(CSCc1ccccc1Br)Nc1ccccc1	inconclusive: -0.2%
NNC(=O)CCN(Cc1ccco1)S(=O)(=O)c1ccc(Cl)cc1	inconclusive: 29.8%
COc1ccccc1Nc1ccc(NC(=O)c2cccc([N+](=O)[O-])c2C)cc1	inconclusive: -3%
COc1ccc(S(=O)(=O)NC(C)C(=O)Nc2ccccc2)cc1Cl (stereo not given)	inactive: 0%
Nc1nc(SCc2ccc(Cl)cc2Cl)n[nH]1	inactive: -10.1%
CCSc1nnc(NC(=O)C(C)(C)C)s1	inconclusive: -17.4%
CC(=O)N1CCN(C(=O)COc2ccc(N(C)S(=O)(=O)c3cccs3)cc2)CC1	inactive: -7.2%
CN1CCN(c2ncc3c(n2)CC(c2ccccc2F)CC3=O)CC1 (stereo not given)	inconclusive: 195%
CCNCC(=O)N1c2ccccc2CCc2ccc(NC(=O)OC(C)C)cc21	inconclusive: 35.5%
C=CCc1cccc2ccc(=O)oc12	active: 37%
COc1cc(CN2CCC(Cc3ccccc3)CC2)c([N+](=O)[O-])cc1OC	inconclusive: -57.3%
O=C(NCc1ccccc1)c1cc2ccc(O)cc2oc1=O	inconclusive: -7.2%
N/C(=N/OC(=O)c1ccc(Cl)cc1)c1ncc([N+](=O)[O-])s1	inconclusive: -118%
